Experimental data published in PubChem BioAssay AID445 (National Center for Advancing Translational Sciences (NCATS), 2006).
Some of the results follow. Shown are side measurements of this screen, not its main read-out; they come without a call. Compounds called inactive in the main read-out are mostly missing here. Words in brackets tell the shape of the fitted curve; partial curves, single points and poor fits give uncertain potencies.

Assay: IkB Signaling
Settings: ABC-DLBCL IkBa-CBG/CBR dual luciferase ratio (green luciferase fused to IkBa over red control in OCI-Ly3 lymphoma cells), 4 h
Procedure, shortened: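 In this assay, an IκBα–CBG68 fusion accumulates when IKK-driven degradation is blocked; native CBR normalizes for cell number. OCI-Ly3 cells were treated 4 h with compound and doxycycline, then green and red light read after Chroma-Glo addition.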

[1] = measured here: control luc red channel unless noted

Q: With COc1ccc(N2CCN(CC(O)COc3ccc(C)cc3C)CC2)cc1 (stereo unspecified) as the compound, how does the AC50 [1] read?
A: Its AC50 is 25.1 µM [falling, single point].

Q: Which AC50 [1] does the source give for Cc1ccc(CNC(=O)CCS(=O)(=O)c2cc3c(cc2Cl)NC(=O)CO3)cc1 here?
A: The AC50 was 12.6 µM [falling, partial curve].

Q: For CC1=C(c2ccc(C)cc2)S(=O)(=O)NC1=NCCCN1CCN(c2cc(C)ccc2C)CC1, which AC50 [1] is on record?
A: Its AC50 is 1.26 µM [rising, full curve].

Q: Which AC50 [1] does the source give for Cc1ccc(Cl)cc1N1CCN(C(=O)CN2C(=O)COc3ccc(S(=O)(=O)N4CCC(C)CC4)cc32)CC1 here?
A: Its AC50 is 7.94 µM [falling, full curve].

Q: Which AC50 [1] does the source give for O=C(NCc1ccc(Cl)cc1)c1ccc(NC(=O)N2CC3CCCN3c3ccccc32)cc1 (stereo unspecified) here?
A: Its AC50 is 10 µM [falling, partial curve].

Q: For O=C(NCc1ccc(F)cc1)c1cc(Sc2ccc(F)cc2F)nc2ccccc12, which AC50 [1] is on record?
A: The AC50 was 31.6 µM [falling, partial curve].

Q: Which AC50 [1] does the source give for O=S(=O)(NCc1ccccc1Cl)c1ccc(-c2cnc(C3CC3)o2)cc1 here?
A: Its AC50 is 39.8 µM [falling, partial curve].

Q: For COc1ccc(N2C(=O)CSC23C(=O)N(Cc2ccccc2F)c2ccccc23)cc1Cl (stereo unspecified), which AC50 [1] is on record?
A: The AC50 was 25.1 µM [falling, single point].

Q: For COc1cccc(-c2nc3ccc(O)cc3c(=O)o2)c1, which AC50 [1] is on record?
A: Its AC50 is 0.398 µM [falling, full curve].

Q: For CCC1=Nc2cc(C(=O)NCc3ccccc3OC)ccc2Sc2ccc(Cl)cc21, which AC50 [1] is on record?
A: Its AC50 is 5.01 µM [falling, partial curve].

Q: Which AC50 [1] does the source give for COCCNc1ncnc2c1cnn2-c1cc(Cl)ccc1C here?
A: The AC50 was 15.8 µM [falling, partial curve].

Q: With COc1ccc2[nH]c(=O)c(CN(CC3CCCO3)C(=O)Nc3ccc(F)cc3)cc2c1 (stereo unspecified) as the compound, how does the AC50 [1] read?
A: Its AC50 is 12.6 µM [falling, partial curve].

Q: For C=C(C)COc1ccc(-c2nc(N)ncc2Oc2ccc(OC)cc2)c(O)c1, which AC50 [1] is on record?
A: The AC50 was 20 µM [falling, partial curve].

Q: For CC(C)Cn1c(=O)c(C(=O)Nc2ccccc2S(N)(=O)=O)c(O)c2ccccc21, which AC50 [1] is on record?
A: Its AC50 is 2.51 µM [falling, full curve].

Q: Which AC50 [1] does the source give for CCCS(=O)(=O)NCCc1csc2nc(-c3ccc(C)cc3)nn12 here?
A: Its AC50 is 1.26 µM [rising, partial curve].

Q: With CCOC(=O)c1ccc(S(=O)(=O)Nc2ccccc2-c2nnn(CC)n2)cc1 as the compound, how does the AC50 [1] read?
A: Its AC50 is 39.8 µM [falling, partial curve].

Q: Which AC50 [1] does the source give for Cc1ccccc1OCCCn1c(CCNC(=O)C2CCCCC2)nc2ccccc21 here?
A: The AC50 was 15.8 µM [falling, partial curve].

Q: Which AC50 [1] does the source give for CN(C(=O)Cn1c(=O)n(CCC(=O)NCc2ccc3c(c2)OCO3)c(=O)c2sccc21)c1ccccc1 here?
A: The AC50 was 5.01 µM [falling, full curve, poor fit].

Q: Which AC50 [1] does the source give for Cc1ccc(-n2ncc(C(=O)N3CCN(C4CCCCC4)CC3)c2C2CCN(C(=O)OC(C)(C)C)CC2)cc1C here?
A: Its AC50 is 15.8 µM [falling, partial curve].

Q: For COc1ccc(CCNC(=O)c2nnn(-c3ccccc3OC)c2N)cc1OC, which AC50 [1] is on record?
A: Its AC50 is 12.6 µM [falling, partial curve].

Q: Which AC50 [1] does the source give for CN(C)/C=C1\C(=O)c2ccc(N(C)C)nc2CC1c1ccccc1 (stereo unspecified) here?
A: The AC50 was 20 µM [falling, partial curve, poor fit].

Q: Which AC50 [1] does the source give for Cn1c(CN2CCOCC2)nc2cc(NC(=O)c3ccc(Cl)cc3)ccc21 here?
A: The AC50 was 7.94 µM [falling, partial curve].

Q: With O=C1C(=O)c2ccccc2C(O)=C1C(C1=C(O)c2ccccc2C(=O)C1=O)c1ccc(Cl)cc1 as the compound, how does the AC50 [1] read?
A: Its AC50 is 1.26 µM [falling, partial curve].

Q: Which AC50 [1] does the source give for CC1CCCN(S(=O)(=O)c2ccc(NC(=O)Cn3nnc(-c4ccccc4F)n3)cc2)C1 (stereo unspecified) here?
A: Its AC50 is 31.6 µM [falling, partial curve].

Q: With CCOc1ccc(NC(=O)CC2C(=O)N(c3ccc(F)cc3)C(=O)N2CCc2sccc2C)cc1 (stereo unspecified) as the compound, how does the AC50 [1] read?
A: The AC50 was 31.6 µM [falling, single point].

Q: Which results are given for COc1ccc(NC(=O)CN2C(=O)CSc3ccc(S(=O)(=O)N(C)C)cc32)cc1OC?
A: AC50 (measured here: IkB-luc green channel): 2 µM [rising, partial curve]; AC50 (measured here: control luc red channel): 1.58 µM [rising, full curve]

Q: For Cc1nc(NC2=NCN(CCCN3CCOCC3)CN2)nc2c(C)cccc12, which AC50 [1] is on record?
A: Its AC50 is 31.6 µM [rising, single point] [measured here: IkB-luc green channel].

Q: Which AC50 [1] does the source give for CCNS(=O)(=O)c1cc(-c2nnc(Nc3cccc(C(F)(F)F)c3)c3ccccc23)ccc1C here?
A: The AC50 was 20 µM [falling, partial curve].

Q: For Cc1ccc(C)c(NC(=O)CCS(=O)(=O)c2cccc3nsnc23)c1, which AC50 [1] is on record?
A: The AC50 was 3.98 µM [falling, single point].

Q: Which AC50 [1] does the source give for Cc1ccc(NC(=O)Cn2c(CCC(=O)O)ccc2-c2cccs2)cc1Cl here?
A: The AC50 was 25.1 µM [falling, single point].

Q: For Cn1c(=O)oc2cc(S(=O)(=O)N3CCCC(C(=O)N4CCN(c5ccc(Cl)cc5)CC4)C3)ccc21 (stereo unspecified), which AC50 [1] is on record?
A: Its AC50 is 15.8 µM [falling, single point].

Q: Which AC50 [1] does the source give for Cc1ccc(C)c(N2CCN(C(=O)C3CCN(S(=O)(=O)c4ccc5[nH]c(=O)oc5c4)CC3)CC2)c1 here?
A: Its AC50 is 10 µM [falling, partial curve].

Q: For CCOC(=O)Nc1cccc(NC(=O)c2cc(OC)cc(OC)c2)c1, which AC50 [1] is on record?
A: The AC50 was 10 µM [falling, partial curve].

Q: Which AC50 [1] does the source give for Cc1cccc(N2CCN(C(=O)CCCn3c(=O)[nH]c4ccsc4c3=O)CC2)c1C here?
A: Its AC50 is 12.6 µM [falling, partial curve].

Q: For Cc1c(NS(=O)(=O)CC23CCC(CC2=O)C3(C)C)c(=O)n(-c2ccccc2)n1C (stereo unspecified), which AC50 [1] is on record?
A: Its AC50 is 39.8 µM [rising, single point].

Q: Which AC50 [1] does the source give for CCCCN(C(=O)Nc1ccc(Cl)cc1)C1CCN(C(C)=O)CC1 here?
A: The AC50 was 0.0631 µM [rising, full curve, poor fit].

Q: With O=C(NC1CCCCC1)c1ccc(CSc2nc3ccncc3n2Cc2ccccc2)cc1 as the compound, how does the AC50 [1] read?
A: The AC50 was 15.8 µM [falling, partial curve].

Q: With Cc1ccc(NC(=O)Cn2c(=O)n(CCCC(=O)NCc3ccc4c(c3)OCO4)c(=O)c3ccccc32)cc1 as the compound, how does the AC50 [1] read?
A: Its AC50 is 7.94 µM [falling, full curve, poor fit].

Q: For O=C(CSc1ccc(-c2nc3ccccc3[nH]2)cn1)N1CCN(C(=O)c2ccco2)CC1, which AC50 [1] is on record?
A: Its AC50 is 25.1 µM [falling, partial curve].

Q: With O=C(Cn1cc(C(=O)c2cccs2)c2ccccc21)NCc1cccs1 as the compound, how does the AC50 [1] read?
A: The AC50 was 12.6 µM [falling, partial curve].

Q: Which AC50 [1] does the source give for CCc1ccc2oc(-c3ccc(NC(=O)c4cccc(Cl)c4Cl)cc3)nc2c1 here?
A: Its AC50 is 3.16 µM [falling, full curve].

Q: Which AC50 [1] does the source give for CCOc1ccc(/C=C/c2nc(C#N)c(NCCCN(C)C)o2)cc1 here?
A: The AC50 was 15.8 µM [falling, single point].

Q: Which AC50 [1] does the source give for COC(=O)c1ccccc1NC(=O)Cn1c(=O)n(CCCC(=O)NCc2ccccc2Cl)c(=O)c2ccccc21 here?
A: Its AC50 is 10 µM [falling, partial curve].

Q: With O=C(COc1ccccc1Cl)N(Cc1cccc(F)c1)C1CCS(=O)(=O)C1 (stereo unspecified) as the compound, how does the AC50 [1] read?
A: Its AC50 is 15.8 µM [falling, partial curve].

Q: With COc1ccccc1N1CCN(C(=O)c2cc3c(-c4ccccc4F)nn(C)c3s2)CC1 as the compound, how does the AC50 [1] read?
A: Its AC50 is 12.6 µM [falling, partial curve].

Q: Which AC50 [1] does the source give for Cc1ccc(-n2c(=O)c3c(cnn3C)n(CC(=O)Nc3cccc(C)c3)c2=O)cc1 here?
A: Its AC50 is 3.16 µM [falling, full curve].

Q: With COc1ccc2c(c1)CC(C(=O)NCCc1ccc(S(N)(=O)=O)cc1)CO2 (stereo unspecified) as the compound, how does the AC50 [1] read?
A: Its AC50 is 0.0794 µM [falling, full curve].

Q: Which AC50 [1] does the source give for O=C(O)c1cccc(COc2ccc(CO)cc2Cl)c1 here?
A: Its AC50 is 1.58 µM [falling, full curve].

Q: With O=C1c2ccccc2C(=O)N1CCCc1nc(-c2ccccn2)no1 as the compound, how does the AC50 [1] read?
A: The AC50 was 10 µM [falling, partial curve].

Q: Which AC50 [1] does the source give for COc1cc2ccccc2cc1C(=O)N1CCN(c2nc3c(F)cc(F)cc3s2)CC1 here?
A: Its AC50 is 39.8 µM [falling, single point].

Q: With Cc1noc(C)c1-c1ccc2ncnc(NCc3cccnc3)c2c1 as the compound, how does the AC50 [1] read?
A: Its AC50 is 3.16 µM [rising, partial curve] [measured here: IkB-luc green channel].

Q: With CC1=C(C(=O)Nc2cccnc2)C(c2ccccc2Cl)n2nc(-c3ccccc3)nc2N1 (stereo unspecified) as the compound, how does the AC50 [1] read?
A: Its AC50 is 12.6 µM [falling, partial curve].

Q: Which AC50 [1] does the source give for CCCS(=O)(=O)C(=C1Nc2ccccc2N1)S(=O)(=O)CCC here?
A: The AC50 was 7.94 µM [falling, partial curve].

Q: For COc1ccc(CCNC(=O)c2ccc(Cn3c(SCC(=O)NCCC(C)C)nc4cc5c(cc4c3=O)OCO5)cc2)cc1OC, which AC50 [1] is on record?
A: The AC50 was 31.6 µM [rising, single point] [measured here: IkB-luc green channel].

Q: With c1ccc(-c2cnc(-c3cccnc3)o2)cc1 as the compound, how does the AC50 [1] read?
A: The AC50 was 0.316 µM [rising, full curve, poor fit].

Q: For Clc1cccc(-n2ncc3c(NCCCN4CCOCC4)ncnc32)c1, which AC50 [1] is on record?
A: The AC50 was 0.631 µM [falling, full curve].

Q: Which AC50 [1] does the source give for COc1ccc(-c2noc(CN(C(=O)c3c(-c4ccccc4Cl)noc3C)C(C)C)n2)cc1 here?
A: Its AC50 is 15.8 µM [falling, partial curve].

Q: With CC(=O)c1c(C)n(-c2ccc(C)cc2)c2ccc(OC(=O)COc3ccccc3)cc12 as the compound, how does the AC50 [1] read?
A: The AC50 was 15.8 µM [falling, partial curve].

Q: Which AC50 [1] does the source give for COc1cc(-c2ccno2)ccc1S(=O)(=O)N1CCN(c2ccccc2)CC1 here?
A: The AC50 was 25.1 µM [falling, single point].

Q: Which AC50 [1] does the source give for O=C(CSc1nnc(CNc2ccc(F)cc2)o1)N1CCCc2ccccc21 here?
A: The AC50 was 15.8 µM [falling, partial curve].
